For 18 compounds, T/C and survivor count results are on record in PubChem BioAssay AID248 (DTP/NCI, 2004).

This assay deals with L1210 leukemia ip in BDF1 mice, survival T/C. The assay can be described thus: NCI In Vivo Anticancer Drug Screen. Data for tumor model L1210 Leukemia (intraperitoneal) in B6D2F1 (BDF1) mice. The conditions noted are these: T/C endpoint: mean survival time, higher T/C = longer survival.
Setting [1] is: dose: 300.0 mg/kg/injection, schedule: Q01DX001 (ip), vehicle: saline.
[2] abbreviates: dose: 25.0 mg/kg/injection, schedule: Q01DX005 (ip), vehicle: saline.
Where [3] appears, read: dose: 50.0 mg/kg/injection, schedule: Q01DX Z (ip), vehicle: carboxymethylcellulose (CMC).

The list shows only some results of the screen, not a fair sample: it is rich in T/C values a quarter to a half above the control, in often repeated tests (any T/C) and in doses without a T/C. Other doses and runs of a compound stand elsewhere. T/C gives the treated animals as a percentage of the vehicle group. Some doses have a count of surviving animals in place of a T/C: the source holds a T/C of zero for them, seemingly a mark for toxic or unscored doses. Some doses without a T/C left all or most animals alive at the check, yet need not have been tolerated: survival well below the control is almost never listed, so the zero probably covers shortened survival too. Counts of survivors are from the toxicity check (mostly the fifth day) where no day follows; animals may have died later. Schedule codes are those of the source, read here as Q, the interval in days (D) or hours (H), X, the number of doses. Some schedule codes hold Z or #, which are not explained here. Where survival is the endpoint, the PubChem record calls one and a half times the control and up active, and a quarter to a half above the control has no call in these data; cut-offs in other NCI protocols can differ. Some T/C values are followed by the survivors on the day toxicity was checked, most often the fifth; where none is given, no animal had died by that day.

`CCC1CN2CCc3cc(OC)c(OC)cc3C2CC1CC1c2cc(OC)c(OC)cc2CCN1C(=O)C(Cc1c[nH]c2ccccc12)NC(=O)OC(C)(C)C` (stereo unspecified): the T/C reads like this: (dose: 128.0 mg/kg/injection, schedule: Q01DX009 (oral), vehicle: saline with Tween-80) 126 % of control; (dose: 133.0 mg/kg/injection, schedule: Q01DX001 (ip), vehicle: saline) 129 % of control; (dose: 150.0 mg/kg/injection, schedule: Q01DX009 (ip), vehicle: saline) 135 % of control; (dose: 200.0 mg/kg/injection, schedule: Q01DX001 (ip), vehicle: saline) 125 % of control; under setting [1], 125 % of control [5 of 6 alive]. Also, the survivor count by setting is: (dose: 256.0 mg/kg/injection, schedule: Q01DX005 (ip), vehicle: saline with Tween-80) 1 of 10; (dose: 256.0 mg/kg/injection, schedule: Q01DX009 (ip), vehicle: saline with Tween-80) 2 of 10.

Take `O=C(O)c1ccccc1NC(=S)c1ccccc1`: the survivor count reads like this: (dose: 200.0 mg/kg/injection, schedule: Q04DX002 (ip), vehicle: other) 3 of 3; (dose: 400.0 mg/kg/injection, schedule: Q04DX002 (ip), vehicle: other) 0 of 3.

With `Cc1ccc(C(=O)Nc2ncn(C3CC(O)C(CO)O3)c(=O)n2)cc1` (stereo unspecified), the T/C (dose: 12.5 mg/kg/injection, schedule: Q04DX003 (ip), vehicle: saline with Tween-80) was 130 % of control and the T/C under setting [2] is 147 % of control.

Regarding `O=C(Nc1ccc(C2=NCCN2)cc1)c1cccc(C(=O)Nc2ccc(C3=NCCN3)cc2)c1[N+](=O)[O-]`, for the setting “dose: 15.0 mg/kg/injection, schedule: Q01DX Z (ip), vehicle: carboxymethylcellulose (CMC)”, the T/C was 137 % of control. Moreover, under “dose: 120.0 mg/kg/injection, schedule: Q01DX Z (ip), vehicle: carboxymethylcellulose (CMC)”, the survivor count was 0 of 6.

`CN(C)C1C2C(CS2(=O)=O)C1(C)C` (stereo unspecified): where the note is “dose: 300.0 mg/kg/injection, schedule: Q01DX001 (ip), vehicle: carboxymethylcellulose (CMC)”, the survivor count is recorded as 1 of 6.

For `CC(=O)N(C(C)=O)c1ccc(C)cc1`, the survivor count (dose: 400.0 mg/kg/injection, schedule: Q01DX009 (ip), vehicle: saline) is listed as 1 of 6.

As to `CN(C)[C@@H]1C(=O)C(C(=O)NCNc2nc(=S)c3[nH]cnc3[nH]2)=C(O)[C@@]2(O)C(=O)C3=C(O)c4c(O)cccc4[C@@](C)(O)[C@H]3C[C@@H]12`, the T/C by setting is: (dose: 25.0 mg/kg/injection, schedule: Q01DX Z (ip), vehicle: carboxymethylcellulose (CMC)) 142 % of control [5 of 6 alive]; under setting [3], 134 % of control.

For the compound `C[C@H]1CC2=CC(=O)CC[C@]2(C)[C@H]2CC[C@@]3(C)[C@@H](CC[C@]3(C)O)[C@H]12`, the survivor count is 3 of 6 (dose: 400.0 mg/kg/injection, schedule: Q01DX009 (ip), vehicle: acetone); 0 of 6 (dose: 400.0 mg/kg/injection, schedule: Q01DX009 (sc), vehicle: acetone); 0 of 6 (dose: 800.0 mg/kg/injection, schedule: Q01DX009 (ip), vehicle: acetone); 0 of 6 (dose: 800.0 mg/kg/injection, schedule: Q01DX009 (sc), vehicle: acetone); 0 of 6 (dose: 1200.0 mg/kg/injection, schedule: Q01DX009 (ip), vehicle: acetone); 0 of 6 (dose: 1200.0 mg/kg/injection, schedule: Q01DX009 (sc), vehicle: acetone). Also, the survivor count (dose: 1600.0 mg/kg/injection, schedule: Q01DX009 (ip), vehicle: acetone) is on record as 0 of 6 and the survivor count (dose: 1600.0 mg/kg/injection, schedule: Q01DX009 (sc), vehicle: acetone) was 1 of 6.

As to `CCC(=O)C1CCCCN1` (stereo unspecified), the survivor count is, setting by setting: (dose: 100.0 mg/kg/injection, schedule: Q04DX002 (ip), vehicle: saline) 0 of 3; (dose: 200.0 mg/kg/injection, schedule: Q04DX002 (ip), vehicle: saline) 0 of 3; (dose: 400.0 mg/kg/injection, schedule: Q04DX002 (ip), vehicle: saline) 0 of 3.

As for `COc1ccc(C(CC(C)=O)c2c(O)c3ccccc3oc2=O)cc1OC` (stereo unspecified), the survivor count is reported as 3 of 6 (dose: 50.0 mg/kg/injection, schedule: Q01DX009 (ip), vehicle: water); 2 of 6 (dose: 100.0 mg/kg/injection, schedule: Q01DX009 (ip), vehicle: water); 0 of 6 (dose: 200.0 mg/kg/injection, schedule: Q01DX009 (ip), vehicle: water); 0 of 6 (dose: 400.0 mg/kg/injection, schedule: Q01DX009 (ip), vehicle: water).

In the case of `O=C(CCCCN1CCc2[nH]c3ccc(F)cc3c2C1)c1ccc(F)cc1`, the survivor count (dose: 100.0 mg/kg/injection, schedule: Q01DX009 (ip), vehicle: other) was 0 of 6; the survivor count (dose: 200.0 mg/kg/injection, schedule: Q01DX009 (ip), vehicle: other) is reported as 0 of 6; the survivor count (dose: 400.0 mg/kg/injection, schedule: Q01DX009 (ip), vehicle: other) was 0 of 6.

In the case of `CCCCCCCCCCCCCCCCCCCCC(C(=O)O)S(=O)(=O)O` (stereo unspecified), the survivor count (dose: 200.0 mg/kg/injection, schedule: Q04DX003 (ip), vehicle: saline) is listed as 0 of 6.

Take `CNC(=S)NC1CC(OC2CC(O)(C(C)=O)Cc3c(O)c4c(c(O)c32)C(=O)c2c(OC)cccc2C4=O)OC(C)C1O` (stereo unspecified): the T/C runs as follows: (dose: 12.5 mg/kg/injection, schedule: Q01DX009 (ip), vehicle: saline with Tween-80) 125 % of control; (dose: 25.0 mg/kg/injection, schedule: Q01DX009 (ip), vehicle: saline with Tween-80) 128 % of control; (dose: 50.0 mg/kg/injection, schedule: Q01DX009 (ip), vehicle: saline with Tween-80) 126 % of control; (dose: 100.0 mg/kg/injection, schedule: Q04DX003 (ip), vehicle: saline with Tween-80) 129 % of control.

As to `O=C(CCCN1CCC(O)(c2ccc(C(F)(F)F)cc2)CC1)c1ccc(N2CCC(O)CC2)cc1`, the survivor count (dose: 50.0 mg/kg/injection, schedule: Q04DX002 (ip), vehicle: saline with Tween-80) is on record as 3 of 3.

With `Cc1ccc(C[As+](c2ccccc2)(c2ccccc2)c2ccccc2)cc1`, the survivor count is given as 0 of 6 (dose: 75.0 mg/kg/injection, schedule: Q01DX001 (ip), vehicle: saline); 0 of 6 (dose: 150.0 mg/kg/injection, schedule: Q01DX001 (ip), vehicle: saline); 0 of 6 under setting [1].

With `CCCCOC(=O)c1[nH]cnc1/N=N/N(C)CCCC`, the survivor count (dose: 400.0 mg/kg/injection, schedule: Q01DX001 (ip), vehicle: other) is given as 1 of 6.

Regarding `C=CC(COC(C)=O)N1CC1` (stereo unspecified), under “dose: 30.0 mg/kg/injection, schedule: Q01DX Z (oral), vehicle: saline”, the T/C is 128 % of control. The survivor count by setting is: under setting [3], 1 of 6; (dose: 60.0 mg/kg/injection, schedule: Q01DX Z (ip), vehicle: saline) 0 of 6; (dose: 200.0 mg/kg/injection, schedule: Q01DX Z (ip), vehicle: carboxymethylcellulose (CMC)) 0 of 6.

In the case of `Nc1ncnc2c1ncn2C1OC(C(=O)NO)C(O)C1O` (stereo unspecified), the survivor count (dose: 3.12 mg/kg/injection, schedule: Q01DX009 (ip), vehicle: saline) was 0 of 6; the survivor count (dose: 6.25 mg/kg/injection, schedule: Q01DX005 (ip), vehicle: saline) is given as 0 of 6; the survivor count (dose: 12.5 mg/kg/injection, schedule: Q01DX005 (ip), vehicle: saline) is listed as 0 of 6; the survivor count under setting [2] is given as 0 of 6; the survivor count (dose: 50.0 mg/kg/injection, schedule: Q01DX005 (ip), vehicle: saline) is 0 of 6; the survivor count (dose: 100.0 mg/kg/injection, schedule: Q01DX005 (ip), vehicle: saline) is recorded as 0 of 6. Also, the survivor count (dose: 200.0 mg/kg/injection, schedule: Q01DX005 (ip), vehicle: saline) is 0 of 6.
